Measured values from article doi:10.1101/2025.08.20.670930.
Results are given in words; binding and its absence hold for the method and conditions named. Binding seen in cells or lysates may run through a third protein. Here binding means that the protein was enriched with, or labelled near, the bait; the list need not be complete. Each block holds one molecule with its values, some of them ahead of it.

Protein sequences, listed by entry. Tags and fused reporters are not part of them.
UniProt O43303: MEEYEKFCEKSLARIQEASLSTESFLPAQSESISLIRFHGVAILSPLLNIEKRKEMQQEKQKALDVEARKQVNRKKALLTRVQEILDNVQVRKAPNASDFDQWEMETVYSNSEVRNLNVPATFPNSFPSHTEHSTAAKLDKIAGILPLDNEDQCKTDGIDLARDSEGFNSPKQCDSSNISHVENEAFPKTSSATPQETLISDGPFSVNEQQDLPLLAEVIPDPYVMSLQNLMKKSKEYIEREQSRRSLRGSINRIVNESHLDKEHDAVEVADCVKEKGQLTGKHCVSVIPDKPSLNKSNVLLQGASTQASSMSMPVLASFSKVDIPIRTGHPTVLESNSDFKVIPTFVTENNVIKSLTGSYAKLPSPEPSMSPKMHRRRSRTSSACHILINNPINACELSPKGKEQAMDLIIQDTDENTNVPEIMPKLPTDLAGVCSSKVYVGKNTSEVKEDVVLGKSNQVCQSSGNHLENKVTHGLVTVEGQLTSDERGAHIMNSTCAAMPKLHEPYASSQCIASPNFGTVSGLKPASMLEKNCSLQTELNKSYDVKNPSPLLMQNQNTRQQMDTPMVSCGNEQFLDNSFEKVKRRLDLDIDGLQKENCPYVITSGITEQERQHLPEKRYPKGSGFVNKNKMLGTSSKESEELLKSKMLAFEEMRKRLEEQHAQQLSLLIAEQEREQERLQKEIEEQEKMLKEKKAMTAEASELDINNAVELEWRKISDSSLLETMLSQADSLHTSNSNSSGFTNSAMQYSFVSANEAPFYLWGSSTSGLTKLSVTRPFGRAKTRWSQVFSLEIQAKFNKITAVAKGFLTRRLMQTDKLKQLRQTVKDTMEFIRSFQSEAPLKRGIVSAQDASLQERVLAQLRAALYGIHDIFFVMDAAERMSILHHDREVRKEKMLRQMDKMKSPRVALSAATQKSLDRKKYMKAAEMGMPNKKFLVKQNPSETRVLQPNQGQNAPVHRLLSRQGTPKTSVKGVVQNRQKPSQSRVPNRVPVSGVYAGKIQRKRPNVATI
UniProt Q96JN8: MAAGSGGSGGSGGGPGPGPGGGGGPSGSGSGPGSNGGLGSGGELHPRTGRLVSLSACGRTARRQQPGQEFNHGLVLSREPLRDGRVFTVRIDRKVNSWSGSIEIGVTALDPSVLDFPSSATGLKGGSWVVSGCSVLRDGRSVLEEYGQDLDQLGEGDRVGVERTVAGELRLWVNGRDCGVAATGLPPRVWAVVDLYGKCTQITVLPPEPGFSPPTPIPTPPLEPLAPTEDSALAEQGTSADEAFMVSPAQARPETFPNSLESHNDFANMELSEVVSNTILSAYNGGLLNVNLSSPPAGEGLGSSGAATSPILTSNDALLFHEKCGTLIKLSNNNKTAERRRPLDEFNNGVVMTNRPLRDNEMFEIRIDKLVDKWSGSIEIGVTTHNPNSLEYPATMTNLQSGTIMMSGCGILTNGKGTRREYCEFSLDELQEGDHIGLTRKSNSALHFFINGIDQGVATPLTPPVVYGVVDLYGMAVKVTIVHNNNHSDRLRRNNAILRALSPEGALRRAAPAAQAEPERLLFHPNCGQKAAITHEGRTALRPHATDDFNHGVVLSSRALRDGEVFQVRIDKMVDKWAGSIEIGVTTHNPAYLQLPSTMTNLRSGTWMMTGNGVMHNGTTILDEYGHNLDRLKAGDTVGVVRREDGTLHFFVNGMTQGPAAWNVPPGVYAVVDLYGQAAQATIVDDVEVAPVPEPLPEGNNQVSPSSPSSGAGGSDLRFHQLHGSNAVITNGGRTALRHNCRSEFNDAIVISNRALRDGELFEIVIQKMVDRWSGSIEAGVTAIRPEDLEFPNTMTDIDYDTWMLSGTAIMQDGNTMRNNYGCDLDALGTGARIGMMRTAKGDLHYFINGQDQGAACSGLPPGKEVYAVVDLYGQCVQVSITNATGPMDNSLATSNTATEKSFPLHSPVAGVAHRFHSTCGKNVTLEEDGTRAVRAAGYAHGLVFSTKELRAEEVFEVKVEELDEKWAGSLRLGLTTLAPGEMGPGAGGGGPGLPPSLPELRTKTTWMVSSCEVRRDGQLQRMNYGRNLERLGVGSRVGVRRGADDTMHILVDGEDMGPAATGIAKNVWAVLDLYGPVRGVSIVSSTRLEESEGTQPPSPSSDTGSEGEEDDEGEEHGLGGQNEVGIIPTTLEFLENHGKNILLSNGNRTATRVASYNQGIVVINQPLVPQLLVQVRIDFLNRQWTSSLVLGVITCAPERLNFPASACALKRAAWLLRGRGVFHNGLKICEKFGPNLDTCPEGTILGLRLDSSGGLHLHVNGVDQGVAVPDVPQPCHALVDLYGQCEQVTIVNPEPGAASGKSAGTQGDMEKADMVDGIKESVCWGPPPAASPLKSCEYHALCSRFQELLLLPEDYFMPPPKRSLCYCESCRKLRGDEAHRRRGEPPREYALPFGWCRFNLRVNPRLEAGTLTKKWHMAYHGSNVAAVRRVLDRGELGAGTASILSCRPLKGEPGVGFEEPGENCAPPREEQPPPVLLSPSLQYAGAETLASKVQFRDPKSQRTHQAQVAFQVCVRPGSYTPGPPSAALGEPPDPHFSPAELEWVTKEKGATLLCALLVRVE
UniProt O15078: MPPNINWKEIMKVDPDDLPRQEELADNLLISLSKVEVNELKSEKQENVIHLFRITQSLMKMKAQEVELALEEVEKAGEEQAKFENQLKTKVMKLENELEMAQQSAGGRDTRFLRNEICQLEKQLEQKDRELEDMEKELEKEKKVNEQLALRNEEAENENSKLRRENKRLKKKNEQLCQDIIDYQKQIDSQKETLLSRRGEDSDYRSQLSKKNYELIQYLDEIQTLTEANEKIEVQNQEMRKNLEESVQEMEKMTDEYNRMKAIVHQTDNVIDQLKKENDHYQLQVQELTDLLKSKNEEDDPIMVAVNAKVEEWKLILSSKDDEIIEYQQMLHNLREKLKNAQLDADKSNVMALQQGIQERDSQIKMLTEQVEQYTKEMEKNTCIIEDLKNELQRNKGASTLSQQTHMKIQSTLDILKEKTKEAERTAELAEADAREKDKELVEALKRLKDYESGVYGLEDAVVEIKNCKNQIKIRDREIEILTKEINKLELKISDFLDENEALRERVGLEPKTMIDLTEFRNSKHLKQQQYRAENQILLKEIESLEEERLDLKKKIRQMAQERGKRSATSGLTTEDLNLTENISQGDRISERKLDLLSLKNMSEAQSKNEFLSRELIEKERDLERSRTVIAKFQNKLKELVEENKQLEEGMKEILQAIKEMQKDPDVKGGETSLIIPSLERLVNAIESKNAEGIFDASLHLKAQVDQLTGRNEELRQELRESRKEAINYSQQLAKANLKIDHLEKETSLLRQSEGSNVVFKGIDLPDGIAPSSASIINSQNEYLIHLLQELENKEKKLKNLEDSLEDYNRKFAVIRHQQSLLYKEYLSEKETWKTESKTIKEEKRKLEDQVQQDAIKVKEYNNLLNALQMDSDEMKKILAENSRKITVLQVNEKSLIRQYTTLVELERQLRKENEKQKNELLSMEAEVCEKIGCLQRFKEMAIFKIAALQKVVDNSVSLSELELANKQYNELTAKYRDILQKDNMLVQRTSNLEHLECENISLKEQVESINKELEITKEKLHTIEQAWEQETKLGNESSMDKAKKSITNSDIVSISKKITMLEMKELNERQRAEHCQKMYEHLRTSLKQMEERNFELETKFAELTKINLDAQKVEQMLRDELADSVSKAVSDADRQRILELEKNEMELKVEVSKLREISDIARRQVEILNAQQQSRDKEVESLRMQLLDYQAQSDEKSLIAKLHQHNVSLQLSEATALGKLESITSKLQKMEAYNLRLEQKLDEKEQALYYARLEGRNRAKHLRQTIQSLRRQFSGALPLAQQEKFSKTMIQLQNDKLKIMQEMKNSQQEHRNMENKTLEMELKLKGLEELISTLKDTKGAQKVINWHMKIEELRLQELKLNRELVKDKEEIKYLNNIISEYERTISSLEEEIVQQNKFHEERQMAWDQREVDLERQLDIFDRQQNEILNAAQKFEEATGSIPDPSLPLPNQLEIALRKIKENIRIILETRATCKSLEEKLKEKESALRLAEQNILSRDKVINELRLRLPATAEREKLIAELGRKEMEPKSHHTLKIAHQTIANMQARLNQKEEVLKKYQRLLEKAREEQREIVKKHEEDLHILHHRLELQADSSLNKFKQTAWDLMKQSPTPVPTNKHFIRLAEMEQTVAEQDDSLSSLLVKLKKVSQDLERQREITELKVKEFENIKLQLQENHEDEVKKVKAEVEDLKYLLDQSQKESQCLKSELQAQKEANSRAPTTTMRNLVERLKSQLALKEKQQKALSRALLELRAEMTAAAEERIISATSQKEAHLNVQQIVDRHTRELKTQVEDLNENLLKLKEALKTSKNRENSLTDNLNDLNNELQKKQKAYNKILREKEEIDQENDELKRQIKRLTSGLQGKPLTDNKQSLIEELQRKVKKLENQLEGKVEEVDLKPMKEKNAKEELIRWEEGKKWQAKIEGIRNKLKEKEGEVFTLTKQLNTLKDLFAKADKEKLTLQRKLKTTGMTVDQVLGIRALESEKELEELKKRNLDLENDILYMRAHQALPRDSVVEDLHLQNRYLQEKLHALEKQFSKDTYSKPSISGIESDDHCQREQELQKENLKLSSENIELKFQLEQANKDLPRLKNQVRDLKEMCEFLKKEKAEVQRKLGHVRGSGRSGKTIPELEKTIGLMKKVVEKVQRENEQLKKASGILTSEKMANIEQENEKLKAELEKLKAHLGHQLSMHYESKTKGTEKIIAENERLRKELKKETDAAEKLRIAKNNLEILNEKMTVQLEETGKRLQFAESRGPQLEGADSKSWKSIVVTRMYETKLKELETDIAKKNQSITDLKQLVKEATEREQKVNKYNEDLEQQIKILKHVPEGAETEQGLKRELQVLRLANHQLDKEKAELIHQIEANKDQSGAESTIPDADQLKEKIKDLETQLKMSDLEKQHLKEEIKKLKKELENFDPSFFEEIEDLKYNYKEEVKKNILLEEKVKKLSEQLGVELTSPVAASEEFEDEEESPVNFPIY

Legend:
LAP-CP110 = LAP-CP110 (UniProt O43303); assay: affinity purification with mass spectrometry; 293T cells stably expressing LAP, LAP-CP110 or LAP-EHD1, serum-starved 3 h; lysis in 50 mM Tris-HCl pH 7.4, 150 mM NaCl, 1% Triton-X100, 10% glycerol; GFP-Trap resin 2 h in a cold room, four washes; LAP alone as control
LAP-EHD1 = biological target: T1, LAP-EHD1 (UniProt Q9H4M9); assay: as above
T1 sequence: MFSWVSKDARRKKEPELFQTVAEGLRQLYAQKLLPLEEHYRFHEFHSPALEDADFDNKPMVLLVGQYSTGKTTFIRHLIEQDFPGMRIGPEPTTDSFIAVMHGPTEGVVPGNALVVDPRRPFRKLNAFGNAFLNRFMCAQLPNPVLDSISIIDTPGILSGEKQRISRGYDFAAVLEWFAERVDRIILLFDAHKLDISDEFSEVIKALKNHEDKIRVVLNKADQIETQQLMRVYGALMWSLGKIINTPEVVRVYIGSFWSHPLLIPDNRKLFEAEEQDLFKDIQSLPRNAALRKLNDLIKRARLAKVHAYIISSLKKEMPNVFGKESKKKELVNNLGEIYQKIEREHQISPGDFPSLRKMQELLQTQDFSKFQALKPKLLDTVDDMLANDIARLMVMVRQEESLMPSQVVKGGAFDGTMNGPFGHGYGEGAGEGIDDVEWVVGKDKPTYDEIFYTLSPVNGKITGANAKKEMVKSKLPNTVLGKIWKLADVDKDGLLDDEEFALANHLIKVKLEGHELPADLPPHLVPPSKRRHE

- binding (LAP-CP110): binds
Molecule: NEURL4 (from UniProt Q96JN8 1-1562)

- binding (LAP-CP110): binds
Molecule: CEP290 (from UniProt O15078 1-2479)

Second part, the molecule before the results:

Molecule: HERC2 (from UniProt O95714 1-4834)
- binding (LAP-CP110): binds
- binding (LAP-EHD1): binds

B1: EHD1 (endogenous) (protein, UniProt Q9H4M9 1-534)
chain: T1 sequence
- binding (LAP-CP110): binds
